Patent US20160145222A1, “Methods for Controlling Pests in Soybean” (BASF SE, priority 2013, published 2016)
Some of these results come from one statement about several compounds together.

Columns and labels:
Type in all cases: in vivo
Nezara viridula = assay: Green Soldier Stink Bug (Nezara viridula) spray test on soybean pods; conditions: sprayed, late 3rd instar N. viridula, after 5 days
Euschistus heros = assay: Neotropical Brown Stink Bug (Euschistus heros) spray test on soybean pods; conditions: 100 ppm; sprayed; adult stage E. heros; after 5 days
Halyomorpha halys = assay: Brown Marmorated Stink Bug (Halyomorpha halys) spray test on peanuts and soybean seeds; conditions: 100 ppm; sprayed; adult stage H. halys; after 5 days

Measured: mortality in comparison with untreated controls

C=CCNC(=O)c1ccc(C2=NSC(c3cc(Cl)c(F)c(Cl)c3)(C(F)(F)F)C2)cc1C (stereo not drawn) [Compound 2-33]
over 75%: Nezara viridula; 100 ppm | Nezara viridula; 500 ppm | Euschistus heros | Halyomorpha halys

Cc1cc(C2=NSC(c3cc(Cl)c(F)c(Cl)c3)(C(F)(F)F)C2)ccc1C(=O)NCC1CC1(F)F (racemic) [Compound 2-77]
over 75%: Nezara viridula; 100 ppm | Nezara viridula; 500 ppm | Euschistus heros | Halyomorpha halys

O=C(CC(F)(F)F)NCc1ccc(C2=NSC(c3cc(Cl)c(Cl)c(Cl)c3)(C(F)(F)F)C2)cc1F (stereo not drawn) [Compound 3-29]
over 75%: Nezara viridula; 100 ppm | Nezara viridula; 500 ppm | Euschistus heros | Halyomorpha halys

CNC(=O)NNC(=O)c1ccc(C2=NSC(c3cc(Cl)c(F)c(Cl)c3)(C(F)(F)F)C2)cc1C (stereo not drawn) [Compound 2-20]
over 75%: Nezara viridula; 100 ppm | Nezara viridula; 500 ppm | Euschistus heros | Halyomorpha halys

C#CCNC(=O)c1ccc(C2=NSC(c3cc(Br)c(F)c(Br)c3)(C(F)(F)F)C2)cc1Cl (racemic) [Compound 2-82]
over 75%: Nezara viridula; 100 ppm | Nezara viridula; 500 ppm | Euschistus heros | Halyomorpha halys

CC(=O)NCc1ccc(C2=NSC(c3cc(Br)c(F)c(Br)c3)(C(F)(F)F)C2)cc1Cl (stereo not drawn) [Compound 3-135]
over 75%: Nezara viridula; 100 ppm | Nezara viridula; 500 ppm | Euschistus heros | Halyomorpha halys

O=C(NCC1CC1)c1ccc(C2=NSC(c3cc(Cl)cc(Br)c3)(C(F)(F)F)C2)cc1Cl (racemic) [Compound 2-72]
over 75%: Nezara viridula; 100 ppm | Nezara viridula; 500 ppm | Euschistus heros | Halyomorpha halys

C#CCNC(=O)CNC(=O)c1ccc(C2=NSC(c3cc(Cl)c(F)c(Cl)c3)(C(F)(F)F)C2)cc1C (stereo not drawn) [Compound 2-30]
over 75%: Nezara viridula; 100 ppm | Nezara viridula; 500 ppm | Euschistus heros | Halyomorpha halys

CCC(=O)NCc1ccc(C2=NSC(c3cc(Br)c(F)c(Br)c3)(C(F)(F)F)C2)cc1Cl (stereo not drawn) [Compound 3-110]
over 75%: Nezara viridula; 100 ppm | Nezara viridula; 500 ppm | Euschistus heros | Halyomorpha halys

CNC(=O)NNC(=O)c1ccc(C2=NSC(c3cc(Cl)c(F)c(Cl)c3)(C(F)(F)F)C2)cc1Cl (stereo not drawn) [Compound 2-27]
over 75%: Nezara viridula; 100 ppm | Nezara viridula; 500 ppm | Euschistus heros | Halyomorpha halys

O=C(CC(F)(F)F)NCc1ccc(C2=NSC(c3cc(Cl)c(F)c(Cl)c3)(C(F)(F)F)C2)cc1Cl (stereo not drawn) [Compound 3-19]
over 75%: Nezara viridula; 100 ppm | Nezara viridula; 500 ppm | Euschistus heros | Halyomorpha halys

O=C(CNC(=O)c1ccc(C2=NSC(c3cc(Cl)c(F)c(Cl)c3)(C(F)(F)F)C2)cc1Cl)NCC1CC1 (racemic) [Compound 2-55]
over 75%: Nezara viridula; 100 ppm | Nezara viridula; 500 ppm | Halyomorpha halys

Cc1cc(C2=NSC(c3cc(Cl)c(F)c(Cl)c3)(C(F)(F)F)C2)ccc1C(=O)NNC(=O)NCC(F)F (stereo not drawn) [Compound 2-21]
over 75%: Nezara viridula; 100 ppm | Nezara viridula; 500 ppm | Euschistus heros | Halyomorpha halys

Cc1cc(C2=NSC(c3cc(Cl)cc(Cl)c3)(C(F)(F)F)C2)ccc1C(=O)NCC(=O)NCC1CC1 (stereo not drawn) [Compound 2-51]
over 75%: Nezara viridula; 100 ppm | Nezara viridula; 500 ppm | Halyomorpha halys

O=C(NCC(F)(F)F)NNC(=O)c1ccc(C2=NSC(c3cc(Cl)c(F)c(Cl)c3)(C(F)(F)F)C2)cc1Cl (stereo not drawn) [Compound 2-25]
over 75%: Nezara viridula; 100 ppm | Nezara viridula; 500 ppm | Halyomorpha halys

C#CCNC(=O)c1ccc(C2=NSC(c3cc(C(F)(F)F)cc(C(F)(F)F)c3)(C(F)(F)F)C2)cc1Cl (stereo not drawn) [Compound 2-87]
over 75%: Nezara viridula; 100 ppm | Nezara viridula; 500 ppm | Euschistus heros | Halyomorpha halys

C#CCNC(=O)c1ccc(C2=NSC(c3cc(Cl)c(F)c(Cl)c3)(C(F)(F)F)C2)cc1C (stereo not drawn) [Compound 2-42]
over 75%: Nezara viridula; 100 ppm | Nezara viridula; 500 ppm | Halyomorpha halys

C=CCNC(=O)CNC(=O)c1ccc(C2=NSC(c3cc(Cl)cc(Cl)c3)(C(F)(F)F)C2)cc1C (stereo not drawn) [Compound 2-52]
over 75%: Nezara viridula; 100 ppm | Nezara viridula; 500 ppm | Halyomorpha halys

Cc1cc(C2=NSC(c3cc(Cl)c(F)c(Cl)c3)(C(F)(F)F)C2)ccc1C(=O)NCC1CCCC1 (racemic) [Compound 2-59]
over 75%: Nezara viridula; 100 ppm | Nezara viridula; 500 ppm | Halyomorpha halys

Cc1cc(C2=NSC(c3cc(Cl)c(F)c(Cl)c3)(C(F)(F)F)C2)ccc1C(=O)NNC(=O)NCC(F)(F)F (stereo not drawn) [Compound 2-19]
over 75%: Nezara viridula; 100 ppm | Nezara viridula; 500 ppm | Euschistus heros | Halyomorpha halys

CC(=O)NCc1ccc(C2=NSC(c3cc(Br)cc(C(F)(F)F)c3)(C(F)(F)F)C2)cc1Cl (stereo not drawn) [Compound 3-98]
over 75%: Nezara viridula; 100 ppm | Nezara viridula; 500 ppm | Halyomorpha halys

O=C(NCC(F)F)NNC(=O)c1ccc(C2=NSC(c3cc(Cl)c(F)c(Cl)c3)(C(F)(F)F)C2)cc1Cl (stereo not drawn) [Compound 2-24]
over 75%: Nezara viridula; 100 ppm | Nezara viridula; 500 ppm | Euschistus heros | Halyomorpha halys

O=C(NCC1CCCCC1)c1ccc(C2=NSC(c3cc(Cl)c(F)c(Cl)c3)(C(F)(F)F)C2)cc1Cl (racemic) [Compound 2-57]
over 75%: Nezara viridula; 100 ppm | Nezara viridula; 500 ppm | Halyomorpha halys

C=CCNC(=O)c1ccc(C2=NSC(c3cc(Br)c(F)c(Br)c3)(C(F)(F)F)C2)cc1Cl (racemic) [Compound 2-81]
over 75%: Nezara viridula; 100 ppm | Nezara viridula; 500 ppm | Halyomorpha halys

Cc1cc(C2=NSC(c3cc(Cl)c(F)c(Cl)c3)(C(F)(F)F)C2)ccc1C(=O)NCC1CC1 (stereo not drawn) [Compound 2-32]
over 75%: Nezara viridula; 100 ppm | Nezara viridula; 500 ppm | Euschistus heros | Halyomorpha halys

C=CCNC(=O)c1ccc(C2=NSC(c3cc(C(F)(F)F)cc(C(F)(F)F)c3)(C(F)(F)F)C2)cc1Cl (racemic) [Compound 2-80]
over 75%: Nezara viridula; 100 ppm | Nezara viridula; 500 ppm | Euschistus heros | Halyomorpha halys

O=C(NCc1ccc(C2=NSC(c3cc(Cl)c(Cl)c(Cl)c3)(C(F)(F)F)C2)cc1F)C1CC1 (stereo not drawn) [Compound 3-28]
over 75%: Nezara viridula; 100 ppm | Nezara viridula; 500 ppm | Euschistus heros | Halyomorpha halys

O=C(NCC1CC1)c1ccc(C2=NSC(c3cc(Br)cc(C(F)(F)F)c3)(C(F)(F)F)C2)cc1Cl (racemic) [Compound 2-66]
over 75%: Nezara viridula; 100 ppm | Nezara viridula; 500 ppm | Euschistus heros | Halyomorpha halys

CCC(=O)NCc1ccc(C2=NSC(c3cc(Cl)c(Cl)c(Cl)c3)(C(F)(F)F)C2)cc1F (stereo not drawn) [Compound 3-27]
over 75%: Nezara viridula; 100 ppm | Nezara viridula; 500 ppm | Euschistus heros | Halyomorpha halys

Cc1cc(C2=NSC(c3cc(Cl)cc(Cl)c3)(C(F)(F)F)C2)ccc1C(=O)NCC(=O)NC1(C#N)CC1 (racemic) [Compound 2-54]
over 75%: Nezara viridula; 100 ppm | Nezara viridula; 500 ppm | Euschistus heros | Halyomorpha halys

C#CCNC(=O)CNC(=O)c1ccc(C2=NSC(c3cc(Cl)c(F)c(Cl)c3)(C(F)(F)F)C2)cc1Cl (stereo not drawn) [Compound 2-40]
over 75%: Nezara viridula; 100 ppm | Nezara viridula; 500 ppm | Halyomorpha halys

COCCC(=O)NCc1ccc(C2=NSC(c3cc(Cl)c(F)c(Cl)c3)(C(F)(F)F)C2)cc1Cl (stereo not drawn) [Compound 3-119]
over 75%: Nezara viridula; 100 ppm | Nezara viridula; 500 ppm | Halyomorpha halys
